# Results from PubChem BioAssay AID1347426 (Functional Genomics Laboratory (NCATS/FGL), 2020).
# The campaign covered roughly 31,000 sequences. About 1,400 (4.5%) were called active.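 How the source made its calls: active means median seed-adjusted z-score above 1 or below -1; inactive means the rest.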 Some of the results follow.
# Experiment: Novel Modifiers of Survival Motor Neuron (SMN) Protein: Gene Identification via Genome-wide siRNA Screen;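 further: luminescence tracks full-length SMN protein made from the SMN2 reporter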
# Conditions: HEK293T SMN2-luciferase reporter, siRNA knockdown, 72 h; actives lie on both sides
# Method in brief: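 Luciferase signal, proportional to full-length SMN made from an SMN2 cDNA reporter in stable HEK293T cells, was read 72 h after siRNA reverse transfection. Values were expressed as MAD scores after non-targeting-control normalization and log10 conversion; seed analysis flagged off-targets.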
row,Sequence,median seed-adjusted z-score
1,GGAGGAUCUUGUACCCAGATT against PNKP,inactive: -0.0563
2,UGCACAUCAAGUAUCCUAATT against SLC30A10,inactive: 0.523
3,GCAUUGACUUGGGUGAAGATT against GPR101,inactive: -0.265
4,GGGAAAUUCUACUCCAGUATT against CACNB2,inactive: 0
5,GGAAAUCACUACAUCCUGATT against IVD,inactive: -0.147
6,AGCCUUUCAUGAUUAUAGUTT against SSBP3,inactive: 0.00592
7,GGUAAAUACCAGCUACUAATT against BBS10,inactive: 0.298
8,AGACUAUGAUAGAAUCCCATT against LGI3,inactive: -0.0189
9,GAUUCGCAGUUUAGAUGUUTT against PRKAA2,inactive: -0.194
10,CCGUGGAGCUUGUUGAUGATT against POP7,inactive: 0.114
11,CAGUUGACCAGAUCACAGATT against ARR3,inactive: -0.0936
12,CAGUUAUGUUCUACGCAGATT against KCND2,inactive: -0.245
13,ACAGCUAUAUGGACGAGAATT against FLI1,inactive: 0.255
14,CUGUCAUACUCCAAUGUAATT against GLYATL2,inactive: -0.947
15,GCAUCGUCAUGAUCACCAATT against PTPRU,inactive: 0
16,CACUUUAGCCUUUACGACATT against HERC1,inactive: 0.168
17,GGAGUCAACGGACAGGUUATT against PCDHA7,inactive: 0.552
18,CUCUUGGUGUUGGAACUCATT against OXSM,inactive: 0.22
19,CGACUACAUGUUCAAGAUUTT against RAB3A,inactive: -0.0787
20,CCGAUUUCAUCAUCACGCATT against MTHFR,inactive: 0
21,GACUGAUCUUCUAAGUUCATT against KIF11,inactive: -0.381
22,GGACAUUUACUGGGACGAUTT against BEST3,inactive: -0.211

row,Sequence,median seed-adjusted z-score
1,GCUUGAUUCUGUGAUUGAATT against AK2,inactive: 0.418
2,GUAUUAUUUUCGUACACGATT against RABL3,inactive: 0.843
3,GCAAGACCACGCUCCUUUATT against ARL11,active: 1
4,CCUCGUCCGUAGUCUCCUUTT against ADRB1,active: 1.06
5,GGAUCACUACCGCUACUGATT against AHCY,inactive: -0.189
6,GCUUGUUCGGCUACACGAATT against CYP8B1,inactive: 0
7,CGAUAUAGUUUUACGAAGATT against LNX2,inactive: 0
8,GGAUCUCUGGAACAGCUCATT against ERCC1,inactive: -0.566
9,GGUGGUCGAUAAGGACUUUTT against OBP2B,inactive: -0.642
10,GCAAGUUAGUGGAUUAAAATT against FOXP1,inactive: -0.198
11,GCAGCAACCACUUACUAGATT against FOXP1,inactive: -0.198
12,AGGUGGAGAUUCUCCAGCATT against ID1,inactive: 0
13,UAACAACUUCCAAUCCAAATT against SPINLW1,inactive: 0.00582
14,AAGGCUUCCUGAACUACUATT against IDUA,inactive: -0.353
15,GCAUCCUUAGCUUUACGUATT against ANK3,inactive: 0.0252
16,GCAUUAGCGCAGCUCGAGATT against CACNB1,inactive: 0.225
17,CCAGAUCCGAGACUAUGUATT against RAB37,inactive: 0.0678
18,CCUUCGAUCUUCAAGCCGATT against SEMA6C,inactive: 0.321
19,UGAAAUAUCUGCGUCAGAATT against GLYATL1,inactive: 0.0148
20,GAUAGAUAGGAAUCCAUUUTT against TBX18,inactive: 0.424
21,GUAUAUAAACAGACAAUGATT against DNAJC8,active: -1.62
22,GGAUCUGAUCUACAAGGCATT against PXK,inactive: -0.4

row,Sequence,median seed-adjusted z-score
1,GGAAUGCAGUAGCAAAGAATT against MCOLN2,inactive: -0.0234
2,CUAUGAAAAUUGCAGGAGATT against GCM2,inactive: -0.241
3,CACCCGCAGUGAAACGAAATT against TMPRSS11F,inactive: -0.289
4,AGCUCAUCUUUCACCGGCATT against SPSB1,inactive: -0.378
5,GCAUCCCACUACUACAAAUTT against KSR2,inactive: -0.371
6,CCAUCGUGUUGGUCAAAUUTT against HTR3B,inactive: 0.153
7,ACAACUUGUUGUUAAAGGATT against IL10,inactive: 0.0967
8,CAUCACCUGUAGAACCUGATT against PIAS2,inactive: -0.096
9,GUACUUUCAUAGCCGGCAATT against FMO1,inactive: 0.323
10,GGAUGACCACAAAUGGAGATT against PIGO,inactive: -0.218
11,GGGUAGCUAUCUUACGAGATT against PAPSS2,inactive: -0.201
12,CCCUAAUGGUGCUAUCUUUTT against PPOX,inactive: 0.519
13,GGACUUAAUUCUCAGAUUUTT against STK38L,inactive: 0.079
14,CCGAGAACCUCACAGAGAATT against FTSJ2,inactive: -0.277
15,CUAAGGAAGUAGUUGAUUATT against HADHB,inactive: -0.188
16,GCCUAGCAAUAGCAAGAUATT against PGDS,inactive: 0.02
17,GUGUGCAUUUUGACAGAGATT against XYLB,inactive: -0.414
18,GAGAUAUUUGAGUCGUUAATT against GBP7,inactive: 0
19,CACUGUGAAUGAUAAGCUGTT against DNMT3A,inactive: -0.643
20,GCCCUCAGGUUAUUGCGUATT against CACNA1A,inactive: -0.467
21,GGAAAUUUGUGAGGCCUUUTT against DUS2L,inactive: -0.705
22,GAACGACAGUUGUCAAAAUTT against KATNAL2,inactive: -0.85

row,Sequence,median seed-adjusted z-score
1,GCUGCUUAUUUGAAUCCUUTT against SDHD,inactive: -0.538
2,GGCUAUUAUUGACAUGGUUTT against PDE8B,inactive: 0.217
3,CUUCUAACCUUGGAGCUCATT against PHGDH,inactive: 0.108
4,GUUUCAUCGUAUAUCAAUATT against HSD17B13,inactive: -0.329
5,UCAUCUACUACAAAACCUATT against GAL3ST2,inactive: 0
6,GGUUCGGCAUGAGUGUGAATT against ZNF187,inactive: 0.419
7,GACUAUGAAUUGCUGCAGATT against PCDHGC5,inactive: -0.0264
8,GGCCUGCUCUGUUCACCUUTT against CDIPT,inactive: 0.303
9,GGACCAGGAUUCUAUUACUTT against TAF1,inactive: -0.582
10,GCGGCAAGGGUUUCAAGCATT against FIZ1,inactive: 0.154
11,GCUUUUGAACUAUUUGAUATT against CETN3,inactive: -0.0815
12,GGUUGCACCGGAUCCAAUATT against SYPL2,inactive: 0.233
13,GCAAUGCAGUCUUCCAAUUTT against DDX18,inactive: 0.241
14,GCAUGUAUGUACUCAGGUUTT against TBX4,inactive: 0.968
15,CAACAUUCUGUUUACCUUUTT against FCGR2B,inactive: -0.163
16,GAAGUCGGGUUGGACCUUATT against ZDHHC24,inactive: -0.695
17,CCUACUACCGGGAUGCUCATT against RAB26,inactive: 0.171
18,CAGCGACUUUUCUCUUUAATT against IDI1,inactive: -0.0118
19,CAGCGGAUCUUCACUCAAATT against NLGN1,inactive: 0.187
20,CGGUCUUUCUUAUUCAGUATT against ZDHHC4,inactive: 0.181
21,GGUUAAACUAAGAAUCCAATT against DBF4,inactive: -0.319
22,CCUUACAAGUCAUAGGAGATT against ZNF160,inactive: -0.454

row,Sequence,median seed-adjusted z-score
1,CUCUGGAUAUGAUAUCGAATT against LRP2,inactive: -0.512
2,GGAACAAACCCUUAGCUAATT against SLITRK1,inactive: 0.215
3,GGGAAUUACUGAUCGUUCATT against TRIM4,inactive: 0
4,GCUGCUAUGAGGUCUCGUATT against KLC1,inactive: -0.0912
5,CAGAAGGCGUGAAAAGAUUTT against RGS10,inactive: 0.304
6,GAUUGAACAGAUGCAGUCATT against KRT77,inactive: -0.0863
7,GUGGGAAACCUGUCGAGGATT against PPP1R14A,inactive: 0.0124
8,GUAAUAUUGUAGAAAAGCATT against SERPINB7,inactive: 0.584
9,GCAAUGGAGCUGUGGAGGATT against CD44,inactive: 0
10,CAACUGGGAUGAUACUUAUTT against L3MBTL,inactive: 0.0232
11,GUUUAGACCUAACCCAAUATT against TARBP1,inactive: 0.491
12,CUACGUGACUGAGCUAACATT against GBP7,inactive: 0
13,CUGCGGACGUGGUUCUGUUTT against UCK1,inactive: -0.599
14,CCGUCUCCAUCUGUAAGAATT against ZDHHC16,inactive: 0.0194
15,GGCUUCUACUGGUGUCUGATT against PIGR,inactive: -0.35
16,GGAACACUAUGAUGAGUUUTT against U2AF1,active: 2.08
17,GCGGUUUACUAUAGACAAATT against IKBKAP,inactive: -0.0316
18,CAGAUGAAGUGAUCGGUGATT against CIITA,inactive: -0.109
19,CCAAGGAGUUCGAACCUAATT against HFE,inactive: -0.677
20,CCUCUUAUGGUGACUUAAATT against SFRS5,inactive: 0.346

# Look-ups from the entries so far:
# Under median seed-adjusted z-score, GCAAUGGAGCUGUGGAGGATT against CD44 shows inactive: 0
# Under median seed-adjusted z-score, CAGAUGAAGUGAUCGGUGATT against CIITA shows inactive: -0.109
# Under median seed-adjusted z-score, CUCUGGAUAUGAUAUCGAATT against LRP2 shows inactive: -0.512
# Under median seed-adjusted z-score, CAACUGGGAUGAUACUUAUTT against L3MBTL shows inactive: 0.0232
